Results are given in words; binding and its absence hold for the method and conditions named. Binding seen in cells or lysates may run through a third protein. Some entries that bind do so weakly or less than the wild type.

Protein sequences, listed by entry. Tags and fused reporters are not part of them.
UniProt Q9Z1E3: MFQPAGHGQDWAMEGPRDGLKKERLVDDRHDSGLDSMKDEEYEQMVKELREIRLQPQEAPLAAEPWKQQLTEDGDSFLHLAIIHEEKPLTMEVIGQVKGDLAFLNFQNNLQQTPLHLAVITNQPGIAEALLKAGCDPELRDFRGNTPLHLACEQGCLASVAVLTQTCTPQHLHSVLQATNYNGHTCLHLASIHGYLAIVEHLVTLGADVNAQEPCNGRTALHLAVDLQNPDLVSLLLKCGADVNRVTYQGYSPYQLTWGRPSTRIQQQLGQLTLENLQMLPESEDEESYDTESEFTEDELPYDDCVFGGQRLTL

For this experiment, the target named is IκBα (mouse (endogenous in HL-1)) (UniProt Q9Z1E3). Description: co-IP; 7 μg IκBα antibody crosslinked (DSS) to Protein A/G magnetic beads; HL-1 cell lysates with 1500 μg total protein, overnight at 4 °C; cells transfected with control plasmid (OE-NC) or lnc9456 overexpression plasmid (OE-lnc9456) for 48 h; western blotting of the eluate. A general note: A western blot detects proteins with antibodies after separation by electrophoresis.

B1: Ras-GTPase-activating protein (SH3 domain)-binding protein 2 (G3BP2) (protein, UniProt P97379 1-482)
chain: MVMEKPSPLLVGREFVRQYYTLLNKAPEYLHRFYGRNSSYVHGGVDASGKPQEAVYGQNDIHHKVLSLNFSECHTKIRHVDAHATLSDGVVVQVMGLLSNSGQPERKFMQTFVLAPEGSVPNKFYVHNDMFRYEDEVFGDSEPELDEESEDEVEEEQEDRQPSPEPVQENANSAYYDAHPVTNGIEEPLEESSHEPEPEPESETKTEELKPQVEEKHLEELEEKSATPPPAEPASLPQEPPKAFSWASVTSKNLPPSGTVSSSGIPPHVKAPVSQPRVDAKPEVQSQPPRVREQRPRERPGFPPRGPRPGRGDMEQNDSDNRRIIRYPDSHQLFVGNLPHDIDENELKEFFMSFGNVVELRINTKGVGGKLPNFGFVVFDDSEPVQRILIAKPIMFRGEVRLNVEEKKTRAARERETRGGGDDRRDIRRNDRGPGGPRGIVGGGMMRDRDGRGPPPRGGMTQKLGSGRGTGQMEGRFTGQRR
As for B1, the binding result is “binds”.
